From publication PMC7883873, “Discovery of New Catalytic Topoisomerase II Inhibitors for Anticancer Therapeutics” (Frontiers in Oncology, 2021)
For part of these data: No signal at the amounts used counts as a negative. For part of these data: The exact form of at least one protein or probe is not confirmed. For part of these data: The comparison behind a weaker result is the experiment's own reference, which may not be listed here.

The chains behind the UniProt entries cited, without tags or fusion partners. Where a name states a change or a piece, a line headed by the entry shows the natural chain unless it says otherwise. Residues count along the entry.
UniProt P11388, 431-1193: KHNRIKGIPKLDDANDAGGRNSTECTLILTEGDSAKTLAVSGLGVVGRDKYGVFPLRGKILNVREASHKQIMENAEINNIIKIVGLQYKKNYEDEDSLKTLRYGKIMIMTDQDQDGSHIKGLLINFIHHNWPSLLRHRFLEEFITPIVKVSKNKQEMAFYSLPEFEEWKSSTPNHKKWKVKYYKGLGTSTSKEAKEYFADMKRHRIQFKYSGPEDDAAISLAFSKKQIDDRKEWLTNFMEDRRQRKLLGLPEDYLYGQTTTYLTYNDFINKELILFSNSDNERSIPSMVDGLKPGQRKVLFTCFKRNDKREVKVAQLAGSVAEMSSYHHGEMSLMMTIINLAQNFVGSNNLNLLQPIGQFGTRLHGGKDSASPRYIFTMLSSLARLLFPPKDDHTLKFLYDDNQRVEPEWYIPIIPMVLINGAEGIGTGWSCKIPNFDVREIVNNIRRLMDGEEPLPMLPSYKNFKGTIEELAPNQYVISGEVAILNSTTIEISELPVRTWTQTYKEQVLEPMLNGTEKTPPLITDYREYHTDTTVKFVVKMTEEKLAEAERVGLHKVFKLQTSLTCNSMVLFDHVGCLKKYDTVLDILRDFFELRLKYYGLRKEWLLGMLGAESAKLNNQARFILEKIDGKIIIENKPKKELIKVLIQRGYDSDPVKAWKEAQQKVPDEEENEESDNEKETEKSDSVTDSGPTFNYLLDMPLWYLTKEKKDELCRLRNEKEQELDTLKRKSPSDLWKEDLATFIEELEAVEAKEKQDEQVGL
UniProt Q02880: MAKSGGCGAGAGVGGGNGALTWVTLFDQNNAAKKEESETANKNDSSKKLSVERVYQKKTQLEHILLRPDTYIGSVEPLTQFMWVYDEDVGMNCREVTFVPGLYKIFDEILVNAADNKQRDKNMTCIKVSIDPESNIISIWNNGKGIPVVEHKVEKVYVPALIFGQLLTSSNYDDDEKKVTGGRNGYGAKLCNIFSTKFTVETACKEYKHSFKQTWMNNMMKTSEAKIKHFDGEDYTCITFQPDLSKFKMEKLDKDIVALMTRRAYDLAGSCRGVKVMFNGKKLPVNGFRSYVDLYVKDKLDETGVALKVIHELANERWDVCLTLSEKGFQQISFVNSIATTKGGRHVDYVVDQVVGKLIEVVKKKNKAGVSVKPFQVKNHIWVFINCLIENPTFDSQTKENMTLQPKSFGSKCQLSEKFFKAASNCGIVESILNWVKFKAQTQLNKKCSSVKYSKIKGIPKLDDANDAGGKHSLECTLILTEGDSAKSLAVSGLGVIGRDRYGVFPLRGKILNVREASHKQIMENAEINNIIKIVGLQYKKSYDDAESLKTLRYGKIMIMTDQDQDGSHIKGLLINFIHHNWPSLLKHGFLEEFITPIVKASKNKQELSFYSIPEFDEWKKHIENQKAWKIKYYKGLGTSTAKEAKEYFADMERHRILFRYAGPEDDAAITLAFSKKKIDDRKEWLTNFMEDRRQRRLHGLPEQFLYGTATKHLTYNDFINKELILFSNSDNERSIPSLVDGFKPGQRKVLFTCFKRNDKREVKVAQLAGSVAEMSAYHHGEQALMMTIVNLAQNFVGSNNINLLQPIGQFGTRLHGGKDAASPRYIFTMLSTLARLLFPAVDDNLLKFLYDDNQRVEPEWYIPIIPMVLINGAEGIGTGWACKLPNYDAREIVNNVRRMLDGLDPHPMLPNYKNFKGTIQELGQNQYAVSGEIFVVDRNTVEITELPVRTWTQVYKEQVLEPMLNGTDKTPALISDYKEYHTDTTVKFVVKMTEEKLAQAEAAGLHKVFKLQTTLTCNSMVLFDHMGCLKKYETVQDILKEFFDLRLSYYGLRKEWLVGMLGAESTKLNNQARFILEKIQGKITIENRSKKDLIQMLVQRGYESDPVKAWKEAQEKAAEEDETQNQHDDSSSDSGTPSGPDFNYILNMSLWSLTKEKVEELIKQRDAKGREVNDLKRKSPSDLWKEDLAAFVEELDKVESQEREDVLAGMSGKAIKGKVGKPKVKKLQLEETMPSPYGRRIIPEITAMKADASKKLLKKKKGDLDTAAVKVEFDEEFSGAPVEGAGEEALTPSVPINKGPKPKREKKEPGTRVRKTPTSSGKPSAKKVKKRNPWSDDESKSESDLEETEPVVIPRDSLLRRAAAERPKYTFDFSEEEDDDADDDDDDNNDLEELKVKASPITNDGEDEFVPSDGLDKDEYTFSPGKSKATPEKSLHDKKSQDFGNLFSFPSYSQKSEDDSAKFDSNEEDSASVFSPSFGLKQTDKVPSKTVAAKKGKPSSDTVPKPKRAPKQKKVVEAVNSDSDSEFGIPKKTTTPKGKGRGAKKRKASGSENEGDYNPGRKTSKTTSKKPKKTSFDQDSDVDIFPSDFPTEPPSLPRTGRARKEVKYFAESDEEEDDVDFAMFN

Columns and labels:
Experiment in all cases: EMSA
[1] = target: TOP2A (431-1193) (Homo sapiens) (UniProt P11388); settings: 200 uM T60, shift abolished, dose dependent over 0-200 uM (Fig 4E); 20 mM HEPES-NaOH pH 7.4, 2 mM DTT, 3 mM MgCl2, 0.05% NP-40, protease inhibitors, 0.1 ug poly[dI:dC] in 20 ul, 30 min at 37 C; 4% native gel in 0.5x TBE; recombinant protein; residues 431-1193; label: IRDye700
[2] = target: TOP2A full-length (Homo sapiens) (UniProt P11388); settings: 200 uM T60, shift interrupted; 20 mM HEPES-NaOH pH 7.4, 2 mM DTT, 3 mM MgCl2, 0.05% NP-40, protease inhibitors, 0.1 ug poly[dI:dC] in 20 ul, 30 min at 37 C; 4% native gel in 0.5x TBE; commercial protein; label: IRDye700
[3] = target: TOP2B full-length (Homo sapiens) (UniProt Q02880); settings: 200 uM T60, shift interrupted; 20 mM HEPES-NaOH pH 7.4, 2 mM DTT, 3 mM MgCl2, 0.05% NP-40, protease inhibitors, 0.1 ug poly[dI:dC] in 20 ul, 30 min at 37 C; 4% native gel in 0.5x TBE; commercial protein; label: IRDye700

Sequence: AGCCGAGCTGCAGCTCGGCT (double strand) [5ZRF]
- binding result [1]: no binding
- binding result [2]: binds more weakly
- binding result [3]: binds more weakly
